Drawing on paper PMC3524801, this text covers binding for one substance.

Sequences of proteins named here, by UniProt entry; tags and fusion partners are left off.
UniProt Q86WV6: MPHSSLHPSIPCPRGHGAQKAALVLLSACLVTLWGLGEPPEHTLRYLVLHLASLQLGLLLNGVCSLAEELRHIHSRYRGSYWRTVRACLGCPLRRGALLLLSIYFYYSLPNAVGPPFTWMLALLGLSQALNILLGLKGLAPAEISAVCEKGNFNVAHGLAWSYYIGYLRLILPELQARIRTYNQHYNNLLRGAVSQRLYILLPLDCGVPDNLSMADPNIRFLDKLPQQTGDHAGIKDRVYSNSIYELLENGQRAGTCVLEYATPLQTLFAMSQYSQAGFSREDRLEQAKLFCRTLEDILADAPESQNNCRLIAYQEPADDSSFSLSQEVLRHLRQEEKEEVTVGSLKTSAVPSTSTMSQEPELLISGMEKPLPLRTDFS
UniProt P12956: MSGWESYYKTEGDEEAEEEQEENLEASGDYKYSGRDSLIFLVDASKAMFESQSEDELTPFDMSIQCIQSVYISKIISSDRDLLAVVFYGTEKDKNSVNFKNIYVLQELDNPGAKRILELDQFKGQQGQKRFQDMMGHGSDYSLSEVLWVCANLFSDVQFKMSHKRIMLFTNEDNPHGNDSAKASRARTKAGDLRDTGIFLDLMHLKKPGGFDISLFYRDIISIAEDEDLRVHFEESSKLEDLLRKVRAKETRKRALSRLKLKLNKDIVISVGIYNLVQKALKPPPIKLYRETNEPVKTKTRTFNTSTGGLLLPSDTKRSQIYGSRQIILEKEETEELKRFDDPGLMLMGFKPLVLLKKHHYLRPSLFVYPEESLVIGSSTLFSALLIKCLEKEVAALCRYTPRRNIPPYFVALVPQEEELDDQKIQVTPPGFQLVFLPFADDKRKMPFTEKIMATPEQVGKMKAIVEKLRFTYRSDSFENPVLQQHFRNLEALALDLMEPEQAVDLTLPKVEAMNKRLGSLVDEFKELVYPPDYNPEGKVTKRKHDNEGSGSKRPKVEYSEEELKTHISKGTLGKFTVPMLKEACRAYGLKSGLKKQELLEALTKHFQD

These are yes or no findings as the source states them, for the method shown. Binding seen in cells or lysates may run through a third protein. Some entries that bind do so weakly or less than the wild type.

In assay [1] the target is FLAG-tagged STING (stimulator of IFN genes) (UniProt Q86WV6). Put plainly: condition: only after transfection of DNA (5 μg/ml); co-IP; FLAG-agarose immunoprecipitation of FLAG-STING from STING-293Trex cells induced with doxycycline (2 μg/ml, 24 hr) and stimulated by transfection of 5 μg/ml DNA for the indicated times; immunoblot of precipitated proteins. A general note: In western blotting, separated proteins are transferred to a membrane and probed.

Assay [2] shares this target. The assay is described as follows: co-IP; FLAG-agarose immunoprecipitation of FLAG-STING from STING-293Trex cells induced with doxycycline (2 μg/ml, 24 hr), prior to DNA stimulation; immunoblot of precipitated proteins.

Consider Ku70 (from UniProt P12956 1-609), for which the values for the binding result in assay [1] and in assay [2] were “no binding” and “binds”, respectively.
